Measured values as given in publication PMC8298096.
Results are given in words; binding and its absence hold for the method and conditions named. A result given as binding can be weak or reduced; the word gives no strength. For some assays here: Binding seen in cells or lysates may run through a third protein.

Assays:
[1] = target: T1, human XKR8 (hXKR8) (human) (UniProt Q9H6D3); test: cryo-EM structure; co-expressed hXKR8-basigin complex purified via the tag on hXKR8 in GDN, SEC on Superose 6, 2 mg/ml; low-resolution reconstruction at 15.3 Å; both purified
T1 sequence: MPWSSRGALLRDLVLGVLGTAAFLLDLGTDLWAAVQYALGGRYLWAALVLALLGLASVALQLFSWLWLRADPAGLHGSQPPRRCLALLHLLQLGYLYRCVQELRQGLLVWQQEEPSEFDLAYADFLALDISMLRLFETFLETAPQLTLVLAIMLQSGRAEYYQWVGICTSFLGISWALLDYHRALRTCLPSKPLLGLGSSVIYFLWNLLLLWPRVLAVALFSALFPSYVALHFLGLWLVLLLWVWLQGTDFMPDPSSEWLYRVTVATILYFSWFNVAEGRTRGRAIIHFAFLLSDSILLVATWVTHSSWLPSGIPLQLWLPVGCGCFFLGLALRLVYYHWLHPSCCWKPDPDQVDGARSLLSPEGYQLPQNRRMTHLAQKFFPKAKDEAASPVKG

[2] = target: T1, human XKR8 (hXKR8) (human); test: pull-down; XKR (N-terminal SBP-myc) and basigin-GFP of the same species co-expressed in HEK293T; affinity purification of the XKR protein on Streptactin without 3C cleavage; basigin detected by in-gel fluorescence, XKR9 by silver stain

- binding [1]: binds
- binding [2]: binds
Substance: human basigin with C-terminal GFP
